# Assay results from the supplement of paper PMC8728848.
# The other results are listed elsewhere or left out.
# B1: LysMD3 (Homo sapiens), Q7Z3D4 (protein)
# chain: MAGRHQNRSFPLPGVQSSGQVHAFGNCSDSDILEEDAEVYELRSRGKEKVRRSTSRDRLDDIIVLTKDIQEGDTLNAIALQYCCTVADIKRVNNLISDQDFFALRSIKIPVKKFSSLTETLCPPKGRQTSRHSSVQYSSEQQEILPANDSLAYSDSAGSFLKEVDRDIEQIVKCTDNKRENLNEVVSALTAQQMRFEPDNKNTQRKDPYYGADWGIG
# Assays:
# Assay in all cases: glycan array binding signal (z-score within array); higher = stronger binding
# Details in all cases: glycan notation: IUPAC condensed, linker removed
# [1] = target: Gal3S(b1-3)[Fuc(a1-4)]GlcNAc
# Procedure, shortened: (§1)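 From the Consortium for Functional Glycomics database, 3228 arrays were curated, keeping only those whose protein sequence was available. Binding is given as a within-array Z-score averaged across arrays sharing a protein sequence and across linkers. Negative Z-scores can be read as non-binding.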
# Gal3S(b1-4)Glc = target: Gal3S(b1-4)Glc
# Procedure, shortened: as §1
# Gal3S(b1-4)Glc6S = target: Gal3S(b1-4)Glc6S
# Procedure, shortened: as §1
# Gal3S(b1-4)GlcNAc = target: Gal3S(b1-4)GlcNAc
# Procedure, shortened: as §1
# [2] = target: Gal3S(b1-4)[Fuc(a1-3)]Glc6S
# Procedure, shortened: as §1
# [3] = target: Gal3S(b1-4)[Fuc(a1-3)]GlcNAc
# Procedure, shortened: as §1
# [4] = target: Gal3S(b1-4)[Fuc(a1-3)]GlcNAc6S
# Procedure, shortened: as §1
# Gal3S4S(b1-4)GlcNAc = target: Gal3S4S(b1-4)GlcNAc
# Procedure, shortened: as §1
# Gal3S6S(b1-4)GlcNAc = target: Gal3S6S(b1-4)GlcNAc
# Procedure, shortened: as §1
# Gal3S6S(b1-4)GlcNAc6S = target: Gal3S6S(b1-4)GlcNAc6S
# Procedure, shortened: as §1
# Gal4S(b1-4)GlcNAc = target: Gal4S(b1-4)GlcNAc
# Procedure, shortened: as §1
# Gal4S6S(b1-4)GlcNAc = target: Gal4S6S(b1-4)GlcNAc
# Procedure, shortened: as §1
# Gal6P(b1-4)GlcNAc = target: Gal6P(b1-4)GlcNAc
# Procedure, shortened: as §1
# Gal6S(b1-3)GlcNAc = target: Gal6S(b1-3)GlcNAc
# Procedure, shortened: as §1
# Gal6S(b1-3)GlcNAc6S = target: Gal6S(b1-3)GlcNAc6S
# Procedure, shortened: as §1
# Gal6S(b1-4)Glc = target: Gal6S(b1-4)Glc
# Procedure, shortened: as §1
# Gal6S(b1-4)Glc6S = target: Gal6S(b1-4)Glc6S
# Procedure, shortened: as §1
# Gal6S(b1-4)GlcNAc = target: Gal6S(b1-4)GlcNAc
# Procedure, shortened: as §1
# Gal6S(b1-4)GlcNAc6S = target: Gal6S(b1-4)GlcNAc6S
# Procedure, shortened: as §1
# GalNAc(a1-3)Gal = target: GalNAc(a1-3)Gal
# Procedure, shortened: as §1
# GalNAc(a1-3)GalNAc = target: GalNAc(a1-3)GalNAc
# Procedure, shortened: as §1
# [5] = target: GalNAc(a1-3)GalNAc(b1-3)Gal(a1-4)Gal(b1-4)Glc
# Procedure, shortened: as §1
# [6] = target: GalNAc(a1-3)GalNAc(b1-3)Gal(a1-4)Gal(b1-4)GlcNAc
# Procedure, shortened: as §1
# GalNAc(b1-3)Gal = target: GalNAc(b1-3)Gal
# Procedure, shortened: as §1
# [7] = target: GalNAc(b1-3)Gal(a1-4)Gal(b1-4)GlcNAc
# Procedure, shortened: as §1
# [8] = target: GalNAc(b1-3)Gal(a1-4)Gal(b1-4)GlcNAc(b1-3)Gal(b1-4)Glc
# Procedure, shortened: as §1
# [9] = target: GalNAc(b1-3)Gal(a1-6)Gal(b1-4)Glc
# Procedure, shortened: as §1
# GalNAc(b1-3)GalNAc = target: GalNAc(b1-3)GalNAc
# Procedure, shortened: as §1
# GalNAc(b1-3)GlcNAc = target: GalNAc(b1-3)GlcNAc
# Procedure, shortened: as §1
# GalNAc(b1-4)Gal(b1-4)Glc = target: GalNAc(b1-4)Gal(b1-4)Glc
# Procedure, shortened: as §1
# GalNAc(b1-4)GlcNAc = target: GalNAc(b1-4)GlcNAc
# Procedure, shortened: as §1
# [10] = target: GalNAc(b1-4)GlcNAc(b1-2)Man
# Procedure, shortened: as §1
# [11] = target: GalNAc(b1-4)GlcNAc(b1-2)Man(a1-3)[GalNAc(b1-4)GlcNAc(b1-2)Man(a1-6)]Man(b1-4)GlcNAc(b1-4)GlcNAc
# Procedure, shortened: as §1
# [12] = target: GalNAc(b1-4)GlcNAc(b1-3)GalNAc(b1-4)GlcNAc
# Procedure, shortened: as §1
# GalNAc(b1-4)GlcNAc6S = target: GalNAc(b1-4)GlcNAc6S
# Procedure, shortened: as §1
# GalNAc(b1-6)GalNAc = target: GalNAc(b1-6)GalNAc
# Procedure, shortened: as §1
# GalNAc3S(b1-4)GlcNAc = target: GalNAc3S(b1-4)GlcNAc
# Procedure, shortened: as §1
# GalNAc3S(b1-4)GlcNAc3S = target: GalNAc3S(b1-4)GlcNAc3S
# Procedure, shortened: as §1
# [13] = target: GalNAc3S(b1-4)[Fuc(a1-3)]GlcNAc
# Procedure, shortened: as §1
# GalNAc4S6S(b1-4)GlcNAc = target: GalNAc4S6S(b1-4)GlcNAc
# Procedure, shortened: as §1
# GalNAc6S(b1-4)GlcNAc = target: GalNAc6S(b1-4)GlcNAc
# Procedure, shortened: as §1
# Glc(a1-4)Glc = target: Glc(a1-4)Glc
# Procedure, shortened: as §1
# [14] = target: Glc(a1-4)Glc(a1-4)Glc(a1-4)Glc
# Procedure, shortened: as §1
# Glc(a1-6)Glc(a1-6)Glc = target: Glc(a1-6)Glc(a1-6)Glc
# Procedure, shortened: as §1
# [15] = target: Glc(a1-6)Glc(a1-6)Glc(a1-6)Glc
# Procedure, shortened: as §1
binder,measurement,setting,value
B1,glycan array binding signal (z-score),[1],0.577
same,glycan array binding signal (z-score),Gal3S(b1-4)Glc,0.287
same,glycan array binding signal (z-score),Gal3S(b1-4)Glc6S,-0.841
same,glycan array binding signal (z-score),Gal3S(b1-4)GlcNAc,-0.699
same,glycan array binding signal (z-score),[2],0.778
same,glycan array binding signal (z-score),[3],0.294
same,glycan array binding signal (z-score),[4],-0.672
same,glycan array binding signal (z-score),Gal3S4S(b1-4)GlcNAc,-0.834
same,glycan array binding signal (z-score),Gal3S6S(b1-4)GlcNAc,1.07
same,glycan array binding signal (z-score),Gal3S6S(b1-4)GlcNAc6S,0.302
same,glycan array binding signal (z-score),Gal4S(b1-4)GlcNAc,-0.528
same,glycan array binding signal (z-score),Gal4S6S(b1-4)GlcNAc,-0.42
same,glycan array binding signal (z-score),Gal6P(b1-4)GlcNAc,0.452
same,glycan array binding signal (z-score),Gal6S(b1-3)GlcNAc,-0.074
same,glycan array binding signal (z-score),Gal6S(b1-3)GlcNAc6S,-1.61
same,glycan array binding signal (z-score),Gal6S(b1-4)Glc,-0.764
same,glycan array binding signal (z-score),Gal6S(b1-4)Glc6S,-0.803
same,glycan array binding signal (z-score),Gal6S(b1-4)GlcNAc,-0.103
same,glycan array binding signal (z-score),Gal6S(b1-4)GlcNAc6S,-0.748
same,glycan array binding signal (z-score),GalNAc(a1-3)Gal,0.335
same,glycan array binding signal (z-score),GalNAc(a1-3)GalNAc,0.973
same,glycan array binding signal (z-score),[5],0.102
same,glycan array binding signal (z-score),[6],0.082
same,glycan array binding signal (z-score),GalNAc(b1-3)Gal,0.293
same,glycan array binding signal (z-score),[7],1.44
same,glycan array binding signal (z-score),[8],-0.098
same,glycan array binding signal (z-score),[9],0.631
same,glycan array binding signal (z-score),GalNAc(b1-3)GalNAc,1.67
same,glycan array binding signal (z-score),GalNAc(b1-3)GlcNAc,1.85
same,glycan array binding signal (z-score),GalNAc(b1-4)Gal(b1-4)Glc,-1.4
same,glycan array binding signal (z-score),GalNAc(b1-4)GlcNAc,0.627
same,glycan array binding signal (z-score),[10],1.1
same,glycan array binding signal (z-score),[11],-0.698
same,glycan array binding signal (z-score),[12],0.876
same,glycan array binding signal (z-score),GalNAc(b1-4)GlcNAc6S,-1.05
same,glycan array binding signal (z-score),GalNAc(b1-6)GalNAc,-0.494
same,glycan array binding signal (z-score),GalNAc3S(b1-4)GlcNAc,-0.843
same,glycan array binding signal (z-score),GalNAc3S(b1-4)GlcNAc3S,-0.621
same,glycan array binding signal (z-score),[13],-0.424
same,glycan array binding signal (z-score),GalNAc4S6S(b1-4)GlcNAc,-0.771
same,glycan array binding signal (z-score),GalNAc6S(b1-4)GlcNAc,-0.435
same,glycan array binding signal (z-score),Glc(a1-4)Glc,0.632
same,glycan array binding signal (z-score),[14],0.138
same,glycan array binding signal (z-score),Glc(a1-6)Glc(a1-6)Glc,-0.523
same,glycan array binding signal (z-score),[15],-0.734

# For reference, part of the list above.
binder,measurement,setting,value
B1,glycan array binding signal (z-score),[4],-0.672
same,glycan array binding signal (z-score),Gal3S4S(b1-4)GlcNAc,-0.834
same,glycan array binding signal (z-score),Gal3S6S(b1-4)GlcNAc,1.07
same,glycan array binding signal (z-score),Gal3S6S(b1-4)GlcNAc6S,0.302
